Data: the supplement of paper PMC8728848
Some of the results follow.

Tests used:
Test in all cases: glycan array binding signal (z-score within array); higher = stronger binding
Conditions in all cases: glycan notation: IUPAC condensed, linker removed
[1] = molecular target: Neu5Ac(a2-3)Gal(b1-3)]Neu5Ac(a2-3)Gal(b1-4)]GlcNAc
Summary of the method: (§1)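 Columns mapping to the same glycan were averaged after glycan names were converted to IUPAC-condensed notation. The data come from 3228 arrays in the Consortium for Functional Glycomics database, limited to those with an available protein sequence. Binding is reported as a within-array Z-score averaged across arrays of one protein sequence and across linkers.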

[2] = molecular target: Neu5Ac(a2-3)Gal(b1-4)Glc
Summary of the method: as §1

[3] = molecular target: Neu5Ac(a2-3)Gal(b1-4)GlcNAc
Summary of the method: as §1

[4] = molecular target: Neu5Ac(a2-3)Gal(b1-4)GlcNAc(b1-2)Man
Summary of the method: as §1

[5] = molecular target: Neu5Ac(a2-3)Gal(b1-4)GlcNAc(b1-2)Man(a1-3)[GlcNAc(b1-4)][Neu5Ac(a2-3)Gal(b1-4)GlcNAc(b1-2)Man(a1-6)]Man(b1-4)GlcNAc(b1-4)GlcNAc
Summary of the method: as §1

[6] = molecular target: Neu5Ac(a2-3)Gal(b1-4)GlcNAc(b1-2)Man(a1-3)[Neu5Ac(a2-3)Gal(b1-4)GlcNAc(b1-2)Man(a1-6)]Man(b1-4)GlcNAc(b1-4)GlcNAc
Summary of the method: as §1

[7] = molecular target: Neu5Ac(a2-3)Gal(b1-4)GlcNAc(b1-2)Man(a1-3)[Neu5Ac(a2-3)Gal(b1-4)GlcNAc(b1-2)Man(a1-6)]Man(b1-4)GlcNAc(b1-4)[Fuc(a1-6)]GlcNAc
Summary of the method: as §1

[8] = molecular target: Neu5Ac(a2-3)Gal(b1-4)GlcNAc(b1-2)Man(a1-3)[Neu5Ac(a2-6)Gal(b1-4)GlcNAc(b1-2)Man(a1-6)]Man(b1-4)GlcNAc(b1-4)GlcNAc
Summary of the method: as §1

[9] = molecular target: Neu5Ac(a2-3)Gal(b1-4)GlcNAc(b1-2)[Neu5Ac(a2-3)Gal(b1-4)GlcNAc(b1-4)]Man(a1-3)[GlcNAc(b1-4)][Neu5Ac(a2-3)Gal(b1-4)GlcNAc(b1-2)[Neu5Ac(a2-3)Gal(b1-4)GlcNAc(b1-6)]Man(a1-6)]Man(b1-4)GlcNAc(b1-4)GlcNAc
Summary of the method: as §1

[10] = molecular target: Neu5Ac(a2-3)Gal(b1-4)GlcNAc(b1-2)[Neu5Ac(a2-3)Gal(b1-4)GlcNAc(b1-4)]Man(a1-3)[GlcNAc(b1-4)][Neu5Ac(a2-3)Gal(b1-4)GlcNAc(b1-4)Man(a1-6)]Man(b1-4)GlcNAc(b1-4)GlcNAc
Summary of the method: as §1

[11] = molecular target: Neu5Ac(a2-3)Gal(b1-4)GlcNAc(b1-2)[Neu5Ac(a2-3)Gal(b1-4)GlcNAc(b1-6)]Man(a1-6)[Neu5Ac(a2-3)Gal(b1-4)GlcNAc(b1-2)Man(a1-3)][GlcNAc(b1-4)]Man(b1-4)GlcNAc(b1-4)GlcNAc
Summary of the method: as §1

[12] = molecular target: Neu5Ac(a2-3)Gal(b1-4)GlcNAc(b1-3)Gal
Summary of the method: as §1

[13] = molecular target: Neu5Ac(a2-3)Gal(b1-4)GlcNAc(b1-3)Gal(b1-3)GlcNAc
Summary of the method: as §1

[14] = molecular target: Neu5Ac(a2-3)Gal(b1-4)GlcNAc(b1-3)Gal(b1-4)GlcNAc
Summary of the method: as §1

[15] = molecular target: Neu5Ac(a2-3)Gal(b1-4)GlcNAc(b1-3)Gal(b1-4)GlcNAc(b1-2)Man(a1-3)[Neu5Ac(a2-3)Gal(b1-4)GlcNAc(b1-3)Gal(b1-4)GlcNAc(b1-2)Man(a1-6)]Man(b1-4)GlcNAc(b1-4)GlcNAc
Summary of the method: as §1

[16] = molecular target: Neu5Ac(a2-3)Gal(b1-4)GlcNAc(b1-3)Gal(b1-4)GlcNAc(b1-3)Gal(b1-4)GlcNAc
Summary of the method: as §1

[17] = molecular target: Neu5Ac(a2-3)Gal(b1-4)GlcNAc(b1-3)Gal(b1-4)GlcNAc(b1-3)Gal(b1-4)GlcNAc(b1-2)Man(a1-3)[Neu5Ac(a2-3)Gal(b1-4)GlcNAc(b1-3)Gal(b1-4)GlcNAc(b1-3)Gal(b1-4)GlcNAc(b1-2)Man(a1-6)]GalNAc
Summary of the method: as §1

[18] = molecular target: Neu5Ac(a2-3)Gal(b1-4)GlcNAc(b1-3)Gal(b1-4)GlcNAc(b1-3)GalNAc
Summary of the method: as §1

[19] = molecular target: Neu5Ac(a2-3)Gal(b1-4)GlcNAc(b1-3)Gal(b1-4)GlcNAc(b1-3)[Neu5Ac(a2-3)Gal(b1-4)GlcNAc(b1-3)Gal(b1-4)GlcNAc(b1-6)]GalNAc
Summary of the method: as §1

[20] = molecular target: Neu5Ac(a2-3)Gal(b1-4)GlcNAc(b1-3)Gal(b1-4)GlcNAc(b1-6)[Gal(b1-3)]GalNAc
Summary of the method: as §1

[21] = molecular target: Neu5Ac(a2-3)Gal(b1-4)GlcNAc(b1-3)Gal(b1-4)[Fuc(a1-3)]GlcNAc
Summary of the method: as §1

[22] = molecular target: Neu5Ac(a2-3)Gal(b1-4)GlcNAc(b1-3)GalNAc
Summary of the method: as §1

[23] = molecular target: Neu5Ac(a2-3)Gal(b1-4)GlcNAc(b1-3)[Neu5Ac(a2-3)Gal(b1-4)GlcNAc(b1-6)]GalNAc
Summary of the method: as §1

[24] = molecular target: Neu5Ac(a2-3)Gal(b1-4)GlcNAc(b1-6)GalNAc
Summary of the method: as §1

[25] = molecular target: Neu5Ac(a2-3)Gal(b1-4)GlcNAc(b1-6)[Gal(b1-3)]GalNAc
Summary of the method: as §1

[26] = molecular target: Neu5Ac(a2-3)Gal(b1-4)GlcNAc(b1-6)[Neu5Ac(a2-3)Gal(b1-3)]GalNAc
Summary of the method: as §1

[27] = molecular target: Neu5Ac(a2-3)Gal(b1-4)GlcNAc6S
Summary of the method: as §1

[28] = molecular target: Neu5Ac(a2-3)Gal(b1-4)[Fuc(a1-3)]GlcNAc
Summary of the method: as §1

[29] = molecular target: Neu5Ac(a2-3)Gal(b1-4)[Fuc(a1-3)]GlcNAc(b1-2)Man
Summary of the method: as §1

[30] = molecular target: Neu5Ac(a2-3)Gal(b1-4)[Fuc(a1-3)]GlcNAc(b1-3)Gal
Summary of the method: as §1

[31] = molecular target: Neu5Ac(a2-3)Gal(b1-4)[Fuc(a1-3)]GlcNAc(b1-3)Gal(b1-4)GlcNAc
Summary of the method: as §1

[32] = molecular target: Neu5Ac(a2-3)Gal(b1-4)[Fuc(a1-3)]GlcNAc(b1-3)Gal(b1-4)[Fuc(a1-3)]GlcNAc(b1-3)Gal(b1-4)[Fuc(a1-3)]GlcNAc
Summary of the method: as §1

[33] = molecular target: Neu5Ac(a2-3)Gal(b1-4)[Fuc(a1-3)]GlcNAc(b1-3)GalNAc
Summary of the method: as §1

[34] = molecular target: Neu5Ac(a2-3)Gal(b1-4)[Fuc(a1-3)]GlcNAc(b1-6)[Gal(b1-3)]GalNAc
Summary of the method: as §1

[35] = molecular target: Neu5Ac(a2-3)Gal(b1-4)[Fuc(a1-3)]GlcNAc(b1-6)[Neu5Ac(a2-3)Gal(b1-3)]GalNAc
Summary of the method: as §1

[36] = molecular target: Neu5Ac(a2-3)Gal(b1-4)[Fuc(a1-3)]GlcNAc6S
Summary of the method: as §1

[37] = molecular target: Neu5Ac(a2-3)Gal6S(b1-4)GlcNAc
Summary of the method: as §1

[38] = molecular target: Neu5Ac(a2-3)Gal6S(b1-4)[Fuc(a1-3)]GlcNAc
Summary of the method: as §1

B1: Epa3to2 (Candida glabrata) (protein)
chain: MGSSHHHHHHSSGLVPRGSHMKRELSSQNPFGYPIGCSPQDVAIIPGLTMELYSYPIVSGTPPNCYDASYVDPEYPRTGYLKRKMVGKSTGVTGNLNYKYSVEKACMVKYGNLPAGYNYNEPLTVSNFTMILYGYFKAQTTGLHTFFVNADDLLYINFGAGNAFDCCKREDSKTKLGEYVAYDIWHVDSSKNKVSLFLEKDLYYPIRMFFNNRDNNSSLDLSFSVNGATDQISDFSGYLYSVPDQPDTCPAHIGYDTTCR
glycan array binding signal (z-score) [1]: -0.356
glycan array binding signal (z-score) [2]: 7.38
glycan array binding signal (z-score) [3]: -0.387
glycan array binding signal (z-score) [4]: 2.24
glycan array binding signal (z-score) [5]: -0.613
glycan array binding signal (z-score) [6]: -0.196
glycan array binding signal (z-score) [7]: -0.663
glycan array binding signal (z-score) [8]: -0.409
glycan array binding signal (z-score) [9]: 1.37
glycan array binding signal (z-score) [10]: -0.302
glycan array binding signal (z-score) [11]: -0.972
glycan array binding signal (z-score) [12]: -1.15
glycan array binding signal (z-score) [13]: -1.11
glycan array binding signal (z-score) [14]: -0.032
glycan array binding signal (z-score) [15]: -0.747
glycan array binding signal (z-score) [16]: 0.849
glycan array binding signal (z-score) [17]: -0.218
glycan array binding signal (z-score) [18]: -0.207
glycan array binding signal (z-score) [19]: 0.371
glycan array binding signal (z-score) [20]: -1.8
glycan array binding signal (z-score) [21]: -0.147
glycan array binding signal (z-score) [22]: 0.337
glycan array binding signal (z-score) [23]: -0.853
glycan array binding signal (z-score) [24]: 0.557
glycan array binding signal (z-score) [25]: -0.072
glycan array binding signal (z-score) [26]: -0.836
glycan array binding signal (z-score) [27]: -0.663
glycan array binding signal (z-score) [28]: -0.974
glycan array binding signal (z-score) [29]: -0.793
glycan array binding signal (z-score) [30]: -0.361
glycan array binding signal (z-score) [31]: 0.95
glycan array binding signal (z-score) [32]: 0.524
glycan array binding signal (z-score) [33]: 1.13
glycan array binding signal (z-score) [34]: 0.206
glycan array binding signal (z-score) [35]: 0.2
glycan array binding signal (z-score) [36]: -0.508
glycan array binding signal (z-score) [37]: -0.301
glycan array binding signal (z-score) [38]: -0.813
